Results: PMC6410177
No constants are given. Whether binding was seen depends on the method and setting. In cells and extracts the contact can be indirect. Some entries that bind do so weakly or less than the wild type. Tags and fused reporters may be left off the sequences shown.

The chains behind the UniProt entries cited, without tags or fusion partners.
UniProt Q76N89: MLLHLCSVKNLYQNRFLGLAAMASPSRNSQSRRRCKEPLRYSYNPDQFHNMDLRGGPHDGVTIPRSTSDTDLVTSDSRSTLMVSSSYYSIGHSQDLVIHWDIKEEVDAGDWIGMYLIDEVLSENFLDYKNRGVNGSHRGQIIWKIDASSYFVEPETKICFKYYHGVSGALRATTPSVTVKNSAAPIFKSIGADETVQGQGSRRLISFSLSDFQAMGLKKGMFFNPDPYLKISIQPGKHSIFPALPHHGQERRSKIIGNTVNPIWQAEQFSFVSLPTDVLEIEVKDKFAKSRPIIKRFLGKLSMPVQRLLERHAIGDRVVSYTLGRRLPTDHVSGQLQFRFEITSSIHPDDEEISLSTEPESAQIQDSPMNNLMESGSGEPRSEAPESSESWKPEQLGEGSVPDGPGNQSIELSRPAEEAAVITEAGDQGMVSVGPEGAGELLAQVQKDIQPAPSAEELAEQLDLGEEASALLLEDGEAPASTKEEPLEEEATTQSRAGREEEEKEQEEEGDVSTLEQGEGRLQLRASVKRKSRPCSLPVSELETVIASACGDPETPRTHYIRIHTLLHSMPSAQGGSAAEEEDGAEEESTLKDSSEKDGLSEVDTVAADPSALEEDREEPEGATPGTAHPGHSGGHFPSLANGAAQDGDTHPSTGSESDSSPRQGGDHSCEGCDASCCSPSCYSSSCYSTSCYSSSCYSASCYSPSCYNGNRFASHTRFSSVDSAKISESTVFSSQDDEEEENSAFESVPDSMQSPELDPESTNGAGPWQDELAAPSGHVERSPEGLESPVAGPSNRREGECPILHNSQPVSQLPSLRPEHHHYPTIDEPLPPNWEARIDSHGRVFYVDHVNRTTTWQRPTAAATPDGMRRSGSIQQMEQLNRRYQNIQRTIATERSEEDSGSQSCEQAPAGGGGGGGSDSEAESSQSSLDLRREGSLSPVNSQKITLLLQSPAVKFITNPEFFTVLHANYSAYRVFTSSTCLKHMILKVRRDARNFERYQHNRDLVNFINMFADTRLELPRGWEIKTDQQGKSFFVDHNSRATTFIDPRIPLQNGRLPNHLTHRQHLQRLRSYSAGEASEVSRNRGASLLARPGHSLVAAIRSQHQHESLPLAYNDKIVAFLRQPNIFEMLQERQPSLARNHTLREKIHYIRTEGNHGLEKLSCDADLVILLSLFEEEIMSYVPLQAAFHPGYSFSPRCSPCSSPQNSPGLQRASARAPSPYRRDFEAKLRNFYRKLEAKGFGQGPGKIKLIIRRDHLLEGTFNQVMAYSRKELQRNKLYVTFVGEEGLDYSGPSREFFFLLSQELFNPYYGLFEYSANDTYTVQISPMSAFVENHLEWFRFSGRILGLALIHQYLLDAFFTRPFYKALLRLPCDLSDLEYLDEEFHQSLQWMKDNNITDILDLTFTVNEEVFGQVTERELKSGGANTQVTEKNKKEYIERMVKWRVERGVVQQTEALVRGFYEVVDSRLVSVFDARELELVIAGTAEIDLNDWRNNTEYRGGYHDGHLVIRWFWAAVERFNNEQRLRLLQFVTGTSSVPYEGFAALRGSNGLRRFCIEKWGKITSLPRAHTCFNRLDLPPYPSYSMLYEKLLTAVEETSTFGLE

Molecular target: NEDL1, Myc-tagged (UniProt Q76N89)
Test: co-IP

| Binder | binding |
| --- | --- |
| angiomotin-like 1 (AMOTL1), Flag-tagged, full length (protein, UniProt Q8IY63 1-956) MWRAKLRRGTCEPAVKGSPSACYSPSSPVQVLEDSTYFSPDFQLYSGRHETSALTVEATSSIREKVVEDPLCNFHSPNFLRISEVEMRGSEDAAAGTVLQRLIQEQLRYGTPTENMNLLAIQHQATGSAGPAHPTNNFSSTENLTQEDPQMVYQSARQEPQGQEHQVDNTVMEKQVRSTQPQQNNEELPTYEEAKAQSQFFRGQQQQQQQQGAVGHGYYMAGGTSQKSRTEGRPTVNRANSGQAHKDEALKELKQGHVRSLSERIMQLSLERNGAKQHLPGSGNGKGFKVGGGPSPAQPAGKVLDPRGPPPEYPFKTKQMMSPVSKTQEHGLFYGDQHPGMLHEMVKPYPAPQPVRTDVAVLRYQPPPEYGVTSRPCQLPFPSTMQQHSPMSSQTSSASGPLHSVSLPLPLPMALGAPQPPPAASPSQQLGPDAFAIVERAQQMVEILTEENRVLHQELQGYYDNADKLHKFEKELQRISEAYESLVKSTTKRESLDKAMRNKLEGEIRRLHDFNRDLRDRLETANRQLSSREYEGHEDKAAEGHYASQNKEFLKEKEKLEMELAAVRTASEDHRRHIEILDQALSNAQARVIKLEEELREKQAYVEKVEKLQQALTQLQSACEKREQMERRLRTWLERELDALRTQQKHGNGQPANMPEYNAPALLELVREKEERILALEADMTKWEQKYLEESTIRHFAMNAAATAAAERDTTIINHSRNGSYGESSLEAHIWQEEEEVVQANRRCQDMEYTIKNLHAKIIEKDAMIKVLQQRSRKDAGKTDSSSLRPARSVPSIAAATGTHSRQTSLTSSQLAEEKKEEKTWKGSIGLLLGKEHHEHASAPLLPPPPTSALSSIASTTAASSAHAKTGSKDSSTQTDKSAELFWPSMASLPSRGRLSTTPAHSPVLKHPAAKGTAEKLENSPGHGKSPDHRGRVSSLLHKPEFPDGEMMEVLI | binds |
| AMOTL1 ∆L/PPXY (triple mutant: LPTY188 to AATY, PPEY310 and PPEY367 to AAEY) (protein, UniProt Q8IY63 1-956) MWRAKLRRGTCEPAVKGSPSACYSPSSPVQVLEDSTYFSPDFQLYSGRHETSALTVEATSSIREKVVEDPLCNFHSPNFLRISEVEMRGSEDAAAGTVLQRLIQEQLRYGTPTENMNLLAIQHQATGSAGPAHPTNNFSSTENLTQEDPQMVYQSARQEPQGQEHQVDNTVMEKQVRSTQPQQNNEEAATYEEAKAQSQFFRGQQQQQQQQGAVGHGYYMAGGTSQKSRTEGRPTVNRANSGQAHKDEALKELKQGHVRSLSERIMQLSLERNGAKQHLPGSGNGKGFKVGGGPSPAQPAGKVLDPRGPAAEYPFKTKQMMSPVSKTQEHGLFYGDQHPGMLHEMVKPYPAPQPVRTDVAVLRYQPAAEYGVTSRPCQLPFPSTMQQHSPMSSQTSSASGPLHSVSLPLPLPMALGAPQPPPAASPSQQLGPDAFAIVERAQQMVEILTEENRVLHQELQGYYDNADKLHKFEKELQRISEAYESLVKSTTKRESLDKAMRNKLEGEIRRLHDFNRDLRDRLETANRQLSSREYEGHEDKAAEGHYASQNKEFLKEKEKLEMELAAVRTASEDHRRHIEILDQALSNAQARVIKLEEELREKQAYVEKVEKLQQALTQLQSACEKREQMERRLRTWLERELDALRTQQKHGNGQPANMPEYNAPALLELVREKEERILALEADMTKWEQKYLEESTIRHFAMNAAATAAAERDTTIINHSRNGSYGESSLEAHIWQEEEEVVQANRRCQDMEYTIKNLHAKIIEKDAMIKVLQQRSRKDAGKTDSSSLRPARSVPSIAAATGTHSRQTSLTSSQLAEEKKEEKTWKGSIGLLLGKEHHEHASAPLLPPPPTSALSSIASTTAASSAHAKTGSKDSSTQTDKSAELFWPSMASLPSRGRLSTTPAHSPVLKHPAAKGTAEKLENSPGHGKSPDHRGRVSSLLHKPEFPDGEMMEVLI | no binding |
